Results are given in words; binding and its absence hold for the method and conditions named. Binding seen in cells or lysates may run through a third protein. These calls come from enrichment with a bait or labelling near it, and not all partners need be listed. Tags and fused reporters may be left off the sequences shown.

The chains behind the UniProt entries cited, without tags or fusion partners.
UniProt Q13547: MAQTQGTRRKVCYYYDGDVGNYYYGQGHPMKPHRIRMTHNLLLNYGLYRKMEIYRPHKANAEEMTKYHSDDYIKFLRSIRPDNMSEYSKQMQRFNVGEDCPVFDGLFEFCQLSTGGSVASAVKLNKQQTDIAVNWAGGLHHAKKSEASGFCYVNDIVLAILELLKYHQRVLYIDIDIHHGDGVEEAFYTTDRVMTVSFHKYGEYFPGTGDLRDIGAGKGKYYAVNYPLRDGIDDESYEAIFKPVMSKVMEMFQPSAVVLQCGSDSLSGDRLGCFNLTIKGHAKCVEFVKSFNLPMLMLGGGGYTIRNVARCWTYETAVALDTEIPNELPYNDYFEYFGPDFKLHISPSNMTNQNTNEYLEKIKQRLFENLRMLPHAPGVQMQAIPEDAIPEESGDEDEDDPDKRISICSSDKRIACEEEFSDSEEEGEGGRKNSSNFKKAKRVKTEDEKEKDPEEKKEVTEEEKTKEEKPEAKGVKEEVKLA

One substance from publication PMC5177622, “Multivalent Histone and DNA Engagement by a PHD/BRD/PWWP Triple Reader Cassette Recruits ZMYND8 to K14ac-Rich Chromatin” (Cell Reports, 2016) can be followed below.

This assay has as its target T1, 3×FLAG-ZMYND8 full length, wild type (human) (UniProt Q9ULU4).
T1 sequence: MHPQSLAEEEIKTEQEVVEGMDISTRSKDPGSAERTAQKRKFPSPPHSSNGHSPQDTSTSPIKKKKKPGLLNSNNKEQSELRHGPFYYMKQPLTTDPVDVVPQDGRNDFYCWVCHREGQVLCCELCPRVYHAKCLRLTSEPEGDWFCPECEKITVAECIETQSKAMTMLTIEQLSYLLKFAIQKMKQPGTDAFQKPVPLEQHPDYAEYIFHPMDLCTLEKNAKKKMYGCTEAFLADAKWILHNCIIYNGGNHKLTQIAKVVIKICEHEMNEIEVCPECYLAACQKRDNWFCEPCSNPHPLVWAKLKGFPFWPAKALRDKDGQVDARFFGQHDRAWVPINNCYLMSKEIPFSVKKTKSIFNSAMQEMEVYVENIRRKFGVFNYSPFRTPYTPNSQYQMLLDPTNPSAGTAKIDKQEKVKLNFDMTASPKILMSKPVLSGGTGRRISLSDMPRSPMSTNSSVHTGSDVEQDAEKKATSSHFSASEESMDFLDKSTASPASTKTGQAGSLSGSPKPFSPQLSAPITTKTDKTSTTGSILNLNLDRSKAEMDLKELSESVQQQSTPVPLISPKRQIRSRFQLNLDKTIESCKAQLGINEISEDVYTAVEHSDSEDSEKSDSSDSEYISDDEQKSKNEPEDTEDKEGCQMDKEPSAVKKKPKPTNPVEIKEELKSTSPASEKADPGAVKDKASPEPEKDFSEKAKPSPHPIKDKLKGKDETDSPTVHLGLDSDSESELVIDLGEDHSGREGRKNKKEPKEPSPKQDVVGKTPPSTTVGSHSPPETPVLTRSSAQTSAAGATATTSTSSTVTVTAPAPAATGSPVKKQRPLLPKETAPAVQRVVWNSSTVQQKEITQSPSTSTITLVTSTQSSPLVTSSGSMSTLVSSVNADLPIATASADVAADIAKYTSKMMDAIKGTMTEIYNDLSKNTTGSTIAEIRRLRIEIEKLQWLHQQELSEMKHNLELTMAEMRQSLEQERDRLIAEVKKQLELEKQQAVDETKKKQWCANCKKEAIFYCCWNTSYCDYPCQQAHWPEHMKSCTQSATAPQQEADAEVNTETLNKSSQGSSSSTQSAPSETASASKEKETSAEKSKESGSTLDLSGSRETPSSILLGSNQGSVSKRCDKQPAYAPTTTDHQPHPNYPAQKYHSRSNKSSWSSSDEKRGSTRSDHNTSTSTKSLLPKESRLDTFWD
Put plainly: affinity purification with mass spectrometry; full-length 3×FLAG ZMYND8 WT or BRD N/F from HEK293 cells; SAINTexpress, FDR 1% or lower; n = 2.

As to “HDAC1 (from UniProt Q13547 1-482) (enzyme)”, the binding entry is reported as “binds”.
